Measurements as given in patent US20210130417A1, “SYSTEMS AND METHODS FOR DESIGNING SYNTHETIC ANTIMICROBIAL PEPTIDES” (University of Notre Dame du Lac, priority 2017, published 2021).
At least one peptide structure holds a part that was inferred or is arguable (an end, a ring closure or a residue). Some compounds share one wording; it may come from a single statement. Residues, ends and D or L forms follow the SMILES beside them.

Test system: E. coli, S. pyogenes, S. aureus, P. syringae, P. aeruginosa, X. axonopodis
Assay: Peptide library screening for inhibition of overnight growth
Assay type: cell-based
Details: screened at 8 μM (4 μM against X. axonopodis); compared with parent peptide fragment

| SMILES | antimicrobial activity in library screen |
| --- | --- |
| CC[C@H](C)[C@H](NC(=O)[C@H](CCCCN)NC(=O)[C@H](CC(N)=O)NC(=O)[C@H](CCCCN)NC(=O)[C@H](CC(C)C)NC(=O)[C@H](Cc1ccc(O)cc1)NC(=O)[C@H](CCC(N)=O)NC(=O)[C@H](CCCNC(=N)N)NC(=O)[C@@H](NC(=O)[C@@H](NC(=O)[C@H](CCCCN)NC(=O)[C@H](CCCCN)NC(=O)CNC(=O)[C@H](C)N)[C@@H](C)O)[C@@H](C)CC)C(=O)N[C@@H](CCCCN)C(=O)N[C@@H](CCCCN)C(=O)N[C@@H](CCCCN)C(=O)NCC(=O)N[C@@H](CCCNC(=N)N)C(=O)N[C@@H](CCCCN)C(=O)N[C@@H](Cc1c[nH]c2ccccc12)C(=O)N[C@H](C(=O)N[C@H](C(=O)N[C@@H](C)C(=O)N[C@@H](Cc1c[nH]c2ccccc12)C(=O)O)[C@@H](C)CC)C(C)C [Peptide 60] (H-AGKKTIRQYLKNKIKKKGRKWVIAW-OH) | increased antimicrobial activity against one or more bacteria |
| CC[C@H](C)[C@H](NC(=O)[C@H](CCCCN)NC(=O)[C@H](CCC(=O)O)NC(=O)[C@H](CCCCN)NC(=O)[C@H](Cc1c[nH]c2ccccc12)NC(=O)[C@H](C)N)C(=O)N[C@@H](CCCNC(=N)N)C(=O)N[C@@H](CCCCN)C(=O)N[C@@H](CCCCN)C(=O)N[C@@H](CC(C)C)C(=O)N[C@@H](CCCCN)C(=O)N[C@@H](CC(N)=O)C(=O)N[C@@H](CCC(=O)O)C(=O)N[C@H](C(=O)N[C@@H](CCCCN)C(=O)N[C@@H](CCCCN)C(=O)N[C@@H](CCCCN)C(=O)N[C@@H](Cc1c[nH]c2ccccc12)C(=O)N[C@@H](CCCNC(=N)N)C(=O)N[C@@H](CCCCN)C(=O)N[C@@H](C)C(=O)N[C@H](C(=O)N[C@H](C(=O)N[C@@H](C)C(=O)N[C@@H](Cc1c[nH]c2ccccc12)C(=O)O)[C@@H](C)CC)C(C)C)[C@@H](C)CC [Peptide 96] (H-AWKEKIRKKLKNEIKKKWRKAVIAW-OH) | increased antimicrobial activity against one or more bacteria |
| CC[C@H](C)[C@H](NC(=O)[C@H](CCCCN)NC(=O)[C@H](CCC(=O)O)NC(=O)[C@H](CCCCN)NC(=O)[C@H](Cc1c[nH]c2ccccc12)NC(=O)[C@H](C)N)C(=O)N[C@@H](CCCNC(=N)N)C(=O)N[C@@H](CCC(N)=O)C(=O)N[C@@H](Cc1ccc(O)cc1)C(=O)N[C@@H](CC(C)C)C(=O)N[C@@H](CCCCN)C(=O)N[C@@H](CC(N)=O)C(=O)N[C@@H](CCC(=O)O)C(=O)N[C@H](C(=O)N[C@@H](CCCCN)C(=O)N[C@@H](CCCCN)C(=O)N[C@@H](CCCCN)C(=O)N[C@@H](Cc1c[nH]c2ccccc12)C(=O)N[C@@H](CCCNC(=N)N)C(=O)N[C@@H](CCCCN)C(=O)N[C@@H](C)C(=O)N[C@H](C(=O)N[C@H](C(=O)N[C@@H](C)C(=O)N[C@@H](Cc1c[nH]c2ccccc12)C(=O)O)[C@@H](C)CC)C(C)C)[C@@H](C)CC [Peptide 93] (H-AWKEKIRQYLKNEIKKKWRKAVIAW-OH) | increased antimicrobial activity against one or more bacteria |
| CC[C@H](C)[C@H](NC(=O)[C@H](CCCCN)NC(=O)[C@H](CC(N)=O)NC(=O)[C@H](CCCCN)NC(=O)[C@H](CC(C)C)NC(=O)[C@H](Cc1ccc(O)cc1)NC(=O)[C@H](CCC(N)=O)NC(=O)[C@H](CCCNC(=N)N)NC(=O)[C@@H](NC(=O)[C@@H](NC(=O)[C@H](CCCCN)NC(=O)[C@H](CCCCN)NC(=O)[C@H](Cc1c[nH]c2ccccc12)NC(=O)[C@H](C)N)[C@@H](C)O)[C@@H](C)CC)C(=O)N[C@@H](CCCCN)C(=O)N[C@@H](CCCCN)C(=O)N[C@@H](CCCCN)C(=O)N[C@@H](Cc1c[nH]c2ccccc12)C(=O)N[C@@H](CCCNC(=N)N)C(=O)N[C@@H](CCCCN)C(=O)N[C@@H](C)C(=O)N[C@H](C(=O)N[C@H](C(=O)N[C@@H](C)C(=O)N[C@@H](Cc1c[nH]c2ccccc12)C(=O)O)[C@@H](C)CC)C(C)C [Peptide 92] (H-AWKKTIRQYLKNKIKKKWRKAVIAW-OH) | increased antimicrobial activity against one or more bacteria |
| CC[C@H](C)[C@H](NC(=O)[C@H](CCCCN)NC(=O)[C@H](CC(N)=O)NC(=O)[C@H](CCCCN)NC(=O)[C@H](CC(C)C)NC(=O)[C@H](Cc1ccc(O)cc1)NC(=O)[C@H](CCC(N)=O)NC(=O)[C@H](CCCNC(=N)N)NC(=O)[C@@H](NC(=O)[C@@H](NC(=O)[C@H](CCC(=O)O)NC(=O)[C@H](CCCCN)NC(=O)[C@H](Cc1c[nH]c2ccccc12)NC(=O)[C@H](C)N)[C@@H](C)O)[C@@H](C)CC)C(=O)N[C@@H](CCCCN)C(=O)N[C@@H](CCCCN)C(=O)N[C@@H](CCCCN)C(=O)N[C@@H](Cc1c[nH]c2ccccc12)C(=O)N[C@@H](CCCNC(=N)N)C(=O)N[C@@H](CCCCN)C(=O)N[C@@H](C)C(=O)N[C@H](C(=O)N[C@H](C(=O)N[C@@H](C)C(=O)N[C@@H](Cc1c[nH]c2ccccc12)C(=O)O)[C@@H](C)CC)C(C)C [Peptide 91] (H-AWKETIRQYLKNKIKKKWRKAVIAW-OH) | increased antimicrobial activity against one or more bacteria |
| CC[C@H](C)[C@H](NC(=O)[C@H](CCC(=O)O)NC(=O)[C@H](CC(N)=O)NC(=O)[C@H](CCCCN)NC(=O)[C@H](CC(C)C)NC(=O)[C@H](Cc1ccc(O)cc1)NC(=O)[C@H](CCC(N)=O)NC(=O)[C@H](CCCNC(=N)N)NC(=O)[C@@H](NC(=O)[C@@H](NC(=O)[C@H](CCCCN)NC(=O)[C@H](CCCCN)NC(=O)[C@H](Cc1c[nH]c2ccccc12)NC(=O)[C@H](C)N)[C@@H](C)O)[C@@H](C)CC)C(=O)N[C@@H](CCCCN)C(=O)N[C@@H](CCCCN)C(=O)N[C@@H](CCCCN)C(=O)N[C@@H](Cc1c[nH]c2ccccc12)C(=O)N[C@@H](CCCNC(=N)N)C(=O)N[C@@H](CCCCN)C(=O)N[C@@H](C)C(=O)N[C@H](C(=O)N[C@H](C(=O)N[C@@H](C)C(=O)N[C@@H](Cc1c[nH]c2ccccc12)C(=O)O)[C@@H](C)CC)C(C)C [Peptide 90] (H-AWKKTIRQYLKNEIKKKWRKAVIAW-OH) | increased antimicrobial activity against one or more bacteria |
| CC[C@H](C)[C@H](NC(=O)[C@H](CCC(=O)O)NC(=O)[C@H](CC(N)=O)NC(=O)[C@H](CCCCN)NC(=O)[C@H](CC(C)C)NC(=O)[C@H](Cc1ccc(O)cc1)NC(=O)[C@H](CCCCN)NC(=O)[C@H](CCCNC(=N)N)NC(=O)[C@@H](NC(=O)[C@@H](NC(=O)[C@H](CCC(=O)O)NC(=O)[C@H](CCCCN)NC(=O)[C@H](Cc1c[nH]c2ccccc12)NC(=O)[C@H](C)N)[C@@H](C)O)[C@@H](C)CC)C(=O)N[C@@H](CCCCN)C(=O)N[C@@H](CCCCN)C(=O)N[C@@H](CCCCN)C(=O)N[C@@H](Cc1c[nH]c2ccccc12)C(=O)N[C@@H](CCCNC(=N)N)C(=O)N[C@@H](CCCCN)C(=O)N[C@@H](C)C(=O)N[C@H](C(=O)N[C@H](C(=O)N[C@@H](C)C(=O)N[C@@H](Cc1c[nH]c2ccccc12)C(=O)O)[C@@H](C)CC)C(C)C [Peptide 94] (H-AWKETIRKYLKNEIKKKWRKAVIAW-OH) | increased antimicrobial activity against one or more bacteria |
| CC[C@H](C)[C@H](NC(=O)[C@H](CCCCN)NC(=O)[C@H](CC(N)=O)NC(=O)[C@H](CCCCN)NC(=O)[C@H](CC(C)C)NC(=O)[C@H](Cc1ccc(O)cc1)NC(=O)[C@H](CCC(N)=O)NC(=O)[C@H](CCCNC(=N)N)NC(=O)[C@@H](NC(=O)[C@@H](NC(=O)[C@H](CCCCN)NC(=O)[C@H](CCCCN)NC(=O)CNC(=O)[C@H](C)N)[C@@H](C)O)[C@@H](C)CC)C(=O)N[C@@H](CCCCN)C(=O)N[C@@H](CCCCN)C(=O)N[C@@H](CCCCN)C(=O)N[C@@H](Cc1c[nH]c2ccccc12)C(=O)N[C@@H](CCCNC(=N)N)C(=O)N[C@@H](CCCCN)C(=O)N[C@@H](C)C(=O)N[C@H](C(=O)N[C@H](C(=O)N[C@@H](C)C(=O)N[C@@H](Cc1c[nH]c2ccccc12)C(=O)O)[C@@H](C)CC)C(C)C [Peptide 52] (H-AGKKTIRQYLKNKIKKKWRKAVIAW-OH) | increased antimicrobial activity against one or more bacteria |
| CC[C@H](C)[C@H](NC(=O)[C@H](CCCCN)NC(=O)[C@H](CC(N)=O)NC(=O)[C@H](CCCCN)NC(=O)[C@H](CC(C)C)NC(=O)[C@H](Cc1ccc(O)cc1)NC(=O)[C@H](CCC(N)=O)NC(=O)[C@H](CCCNC(=N)N)NC(=O)[C@@H](NC(=O)[C@@H](NC(=O)[C@H](CCCCN)NC(=O)[C@H](CCCCN)NC(=O)[C@H](Cc1c[nH]c2ccccc12)NC(=O)[C@H](C)N)[C@@H](C)O)[C@@H](C)CC)C(=O)N[C@@H](CCCCN)C(=O)N[C@@H](CCCCN)C(=O)N[C@@H](CCCCN)C(=O)NCC(=O)N[C@@H](CCCNC(=N)N)C(=O)N[C@@H](CCCCN)C(=O)N[C@@H](C)C(=O)N[C@H](C(=O)N[C@H](C(=O)N[C@@H](C)C(=O)N[C@@H](Cc1c[nH]c2ccccc12)C(=O)O)[C@@H](C)CC)C(C)C [Peptide 20] (H-AWKKTIRQYLKNKIKKKGRKAVIAW-OH) | increased antimicrobial activity against one or more bacteria |
